Screen size: about 300,000 compounds; about 3,700 (1.2%) were called active. Inconclusive means that the source gave no clear call. Such entries were picked first, then a sample of the others. The call rests on the fitted dose curve; tested in HEK293 cells. Potencies beside an inconclusive call are fits to weak or partial responses and may not hold up.
Experiment: qHTS for Inhibitors of binding or entry into cells for Lassa Virus; further: nearly all actives have a fitted effect of over 50% in size
Conditions: Lassa virus pseudotype entry inhibition, cell reporter; series mostly up to 37.9 µM
Potency means the concentration at half of the fitted maximal effect.

SMILES	Potency
C/C(=N/NC(=O)C1CCCN1C(=O)c1ccc([N+](=O)[O-])cc1)c1ccc(Br)cc1 (centres undefined)	inconclusive: 0.891 µM [activator, full curve, poor fit]
COc1cc(NC(=O)C(Cc2ccccc2)NS(=O)(=O)c2cccc3nsnc23)cc(OC)c1 (centres undefined)	inconclusive: 3.16 µM [inhibitor, full curve, poor fit]
CCN(CC)C(=S)NC(=O)Cc1ccccc1	inactive
COc1cccc(NC(=O)C(Sc2nnc(-c3ccncc3)n2-c2ccc(Cl)cc2)c2ccccc2)c1 (centres undefined)	inconclusive: 11.2 µM [inhibitor, partial curve]
COc1ccc(CSC2=CS(=O)(=O)c3ccccc3N2)cc1	inactive
C=CCOc1ccc(C2C(C#N)=C(N)N(Nc3ccccc3)C3=C2C(=O)CCC3)cc1OC (centres undefined)	inconclusive: 4.47 µM [inhibitor, partial curve, poor fit]
CCC(Oc1ccccc1)C(=O)Nc1ccccc1C(=O)N1CCN(C)CC1 (centres undefined)	inactive
CC1(C)C(N(O)C(=O)Nc2ccc(Cl)cc2)N(c2ccc(Cl)cc2)C(=O)N1CC(=O)NN (centres undefined)	inactive
Cc1nnc(SCc2nnc(-c3ccc(Cl)cc3)o2)n1-c1ccccc1	inactive
FC(F)Oc1ccc(/C=N/n2c(Cc3ccc(Br)cc3)n[nH]c2=S)cc1	active: 5.01 µM
Cc1ncoc1C(=O)Nc1ccc(Oc2ccccc2)cc1	inactive
NC(=O)c1ccccc1NC(=O)CN1CCN(Cc2ccc(Cl)cc2Cl)CC1	inactive
Cc1ccccc1Cn1cccc(C(=O)Nc2nc3ccccc3s2)c1=O	inconclusive: 35.5 µM [activator, partial curve, poor fit]
CCCCCn1c(=O)c(C(=O)NC(C)c2ccccc2)c(O)c2ccccc21 (centres undefined)	inconclusive: 2.82 µM [inhibitor, partial curve, poor fit]
CC(=O)Nc1ccccc1C(=O)C(=O)Nc1cccc(C(=O)NCC2CCCO2)c1 (centres undefined)	inconclusive: 5.62 µM [inhibitor, partial curve, poor fit]
CCOC(=O)CSC1=C(C#N)C(c2ccco2)C(C(=O)OCc2ccccc2)=C(C)N1 (centres undefined)	inconclusive: 7.3 µM [inhibitor, partial curve, poor fit]
O=c1ccnc(SCc2ccccc2Cl)[nH]1	inconclusive: 4.61 µM [inhibitor, full curve, poor fit]
COCCn1c(=O)[nH]c(=O)c2c1nc(-c1cc(Br)c3c(c1)OCO3)n2Cc1ccccc1	inconclusive: 35.5 µM [inhibitor, partial curve, poor fit]
Cc1ccc(N(CC(O)CN2CCCC2)S(=O)(=O)c2ccc(C)cc2)cc1 (centres undefined)	inactive

Four structures from above, ordered by count of non-hydrogen atoms, smallest number first:
SMILES	Potency
FC(F)Oc1ccc(/C=N/n2c(Cc3ccc(Br)cc3)n[nH]c2=S)cc1	active: 5.01 µM
CC(=O)Nc1ccccc1C(=O)C(=O)Nc1cccc(C(=O)NCC2CCCO2)c1 (centres undefined)	inconclusive: 5.62 µM [inhibitor, partial curve, poor fit]
CCOC(=O)CSC1=C(C#N)C(c2ccco2)C(C(=O)OCc2ccccc2)=C(C)N1 (centres undefined)	inconclusive: 7.3 µM [inhibitor, partial curve, poor fit]
COc1cccc(NC(=O)C(Sc2nnc(-c3ccncc3)n2-c2ccc(Cl)cc2)c2ccccc2)c1 (centres undefined)	inconclusive: 11.2 µM [inhibitor, partial curve]
